Among the data in publication PMC7546007 are binding values, retold here.

Amino acid sequences for entries named in this document (tags omitted). Residues count along the entry.
UniProt Q13546: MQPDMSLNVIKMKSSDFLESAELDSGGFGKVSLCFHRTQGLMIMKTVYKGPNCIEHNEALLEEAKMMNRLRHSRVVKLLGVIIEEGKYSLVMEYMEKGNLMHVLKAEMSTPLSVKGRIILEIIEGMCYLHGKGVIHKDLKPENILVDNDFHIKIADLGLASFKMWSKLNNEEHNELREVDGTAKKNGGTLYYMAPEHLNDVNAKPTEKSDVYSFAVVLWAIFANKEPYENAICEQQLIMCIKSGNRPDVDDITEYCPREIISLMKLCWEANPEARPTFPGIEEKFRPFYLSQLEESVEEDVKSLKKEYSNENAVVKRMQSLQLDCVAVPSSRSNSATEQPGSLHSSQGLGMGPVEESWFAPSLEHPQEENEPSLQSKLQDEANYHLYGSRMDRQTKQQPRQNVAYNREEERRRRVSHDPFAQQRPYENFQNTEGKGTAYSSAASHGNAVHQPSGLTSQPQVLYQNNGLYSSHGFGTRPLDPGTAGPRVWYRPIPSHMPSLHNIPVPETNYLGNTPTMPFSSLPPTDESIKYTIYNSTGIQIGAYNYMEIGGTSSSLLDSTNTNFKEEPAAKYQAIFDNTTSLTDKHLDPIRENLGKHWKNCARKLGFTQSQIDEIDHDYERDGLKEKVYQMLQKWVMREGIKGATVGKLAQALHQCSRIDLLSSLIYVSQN
UniProt Q14790: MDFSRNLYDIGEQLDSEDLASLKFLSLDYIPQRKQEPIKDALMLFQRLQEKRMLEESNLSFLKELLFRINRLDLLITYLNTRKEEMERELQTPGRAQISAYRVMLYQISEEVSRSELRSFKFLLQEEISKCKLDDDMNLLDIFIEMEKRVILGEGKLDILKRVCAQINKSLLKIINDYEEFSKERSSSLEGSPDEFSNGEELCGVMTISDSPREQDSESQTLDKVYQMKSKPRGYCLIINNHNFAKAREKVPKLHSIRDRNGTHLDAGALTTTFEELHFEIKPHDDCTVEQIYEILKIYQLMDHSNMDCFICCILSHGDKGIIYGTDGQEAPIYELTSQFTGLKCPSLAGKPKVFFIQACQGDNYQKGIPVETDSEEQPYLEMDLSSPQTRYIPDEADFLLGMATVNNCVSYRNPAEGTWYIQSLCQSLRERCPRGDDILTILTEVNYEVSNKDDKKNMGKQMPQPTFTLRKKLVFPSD
UniProt Q99836: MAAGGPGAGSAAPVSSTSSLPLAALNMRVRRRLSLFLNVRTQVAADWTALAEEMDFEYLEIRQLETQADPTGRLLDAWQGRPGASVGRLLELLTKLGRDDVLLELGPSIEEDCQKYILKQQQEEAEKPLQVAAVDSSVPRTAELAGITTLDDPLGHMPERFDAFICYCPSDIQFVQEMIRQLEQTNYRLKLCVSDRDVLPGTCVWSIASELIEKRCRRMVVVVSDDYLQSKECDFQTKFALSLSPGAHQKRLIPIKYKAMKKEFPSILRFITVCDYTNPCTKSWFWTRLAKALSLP
UniProt Q8IUC6: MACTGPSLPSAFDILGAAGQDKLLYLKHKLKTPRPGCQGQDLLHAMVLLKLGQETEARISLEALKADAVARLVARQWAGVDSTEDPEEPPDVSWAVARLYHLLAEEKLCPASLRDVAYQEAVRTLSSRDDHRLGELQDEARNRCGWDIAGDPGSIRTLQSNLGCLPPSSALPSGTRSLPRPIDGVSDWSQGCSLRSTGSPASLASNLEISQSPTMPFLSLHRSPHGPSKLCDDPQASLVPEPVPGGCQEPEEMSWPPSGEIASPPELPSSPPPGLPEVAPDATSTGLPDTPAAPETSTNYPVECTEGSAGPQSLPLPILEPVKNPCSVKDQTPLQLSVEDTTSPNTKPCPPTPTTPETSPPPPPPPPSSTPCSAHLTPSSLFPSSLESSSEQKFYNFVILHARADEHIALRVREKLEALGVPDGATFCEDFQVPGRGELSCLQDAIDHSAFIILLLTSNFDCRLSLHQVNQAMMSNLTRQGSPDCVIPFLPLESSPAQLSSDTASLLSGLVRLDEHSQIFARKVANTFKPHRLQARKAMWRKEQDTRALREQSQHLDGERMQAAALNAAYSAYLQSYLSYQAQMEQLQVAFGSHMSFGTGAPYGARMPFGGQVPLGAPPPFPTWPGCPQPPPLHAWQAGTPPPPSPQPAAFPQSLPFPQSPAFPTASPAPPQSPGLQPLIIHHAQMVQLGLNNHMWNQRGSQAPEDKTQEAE
UniProt P51617: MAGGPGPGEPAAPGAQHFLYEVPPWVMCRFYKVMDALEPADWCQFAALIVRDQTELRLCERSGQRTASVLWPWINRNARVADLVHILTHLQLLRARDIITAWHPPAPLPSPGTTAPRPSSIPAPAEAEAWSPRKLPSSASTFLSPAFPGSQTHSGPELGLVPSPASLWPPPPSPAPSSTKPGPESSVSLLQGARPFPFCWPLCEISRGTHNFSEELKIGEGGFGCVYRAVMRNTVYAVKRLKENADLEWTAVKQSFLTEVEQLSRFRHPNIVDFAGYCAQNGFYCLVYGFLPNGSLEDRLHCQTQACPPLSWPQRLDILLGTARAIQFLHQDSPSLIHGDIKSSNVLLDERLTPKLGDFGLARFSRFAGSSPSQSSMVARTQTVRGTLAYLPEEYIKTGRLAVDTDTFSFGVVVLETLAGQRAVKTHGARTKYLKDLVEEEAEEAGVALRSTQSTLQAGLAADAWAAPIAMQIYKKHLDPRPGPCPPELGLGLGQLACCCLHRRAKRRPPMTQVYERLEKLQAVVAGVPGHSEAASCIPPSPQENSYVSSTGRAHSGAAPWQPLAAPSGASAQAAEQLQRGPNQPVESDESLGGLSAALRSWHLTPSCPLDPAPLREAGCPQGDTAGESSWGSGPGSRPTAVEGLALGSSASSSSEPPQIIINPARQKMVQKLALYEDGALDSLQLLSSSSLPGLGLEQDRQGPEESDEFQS
UniProt O00206, residues 24-839: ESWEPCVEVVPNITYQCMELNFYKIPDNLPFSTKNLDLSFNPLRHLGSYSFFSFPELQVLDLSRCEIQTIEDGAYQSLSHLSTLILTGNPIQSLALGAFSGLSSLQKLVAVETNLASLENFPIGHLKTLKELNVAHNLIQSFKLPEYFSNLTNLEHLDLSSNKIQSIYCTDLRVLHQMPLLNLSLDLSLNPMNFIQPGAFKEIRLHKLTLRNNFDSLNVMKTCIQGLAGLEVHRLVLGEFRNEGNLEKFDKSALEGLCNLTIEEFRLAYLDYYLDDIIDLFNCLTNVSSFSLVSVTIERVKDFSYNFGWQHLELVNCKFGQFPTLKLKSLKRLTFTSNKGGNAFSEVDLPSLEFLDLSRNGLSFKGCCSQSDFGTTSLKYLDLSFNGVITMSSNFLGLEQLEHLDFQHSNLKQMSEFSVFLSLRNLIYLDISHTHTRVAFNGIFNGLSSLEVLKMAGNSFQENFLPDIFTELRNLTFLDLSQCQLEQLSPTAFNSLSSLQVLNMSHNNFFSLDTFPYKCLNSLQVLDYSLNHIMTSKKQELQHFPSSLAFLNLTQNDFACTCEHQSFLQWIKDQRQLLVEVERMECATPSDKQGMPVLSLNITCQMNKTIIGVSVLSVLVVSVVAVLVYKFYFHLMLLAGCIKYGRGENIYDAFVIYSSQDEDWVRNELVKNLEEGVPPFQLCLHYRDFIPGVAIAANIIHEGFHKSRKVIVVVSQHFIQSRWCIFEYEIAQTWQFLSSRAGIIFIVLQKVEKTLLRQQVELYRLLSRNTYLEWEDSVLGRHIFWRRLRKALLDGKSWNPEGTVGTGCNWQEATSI

These are yes or no findings as the source states them, for the method shown. In cells and extracts the contact can be indirect. Some entries that bind do so weakly or less than the wild type. For part of these data: Where a sequence is shown, tags or fusion partners need not be part of it.

The target in test [1] is receptor-interacting protein 1 (RIP1) (human (endogenous in HK-2)) (UniProt Q13546). The test is described as follows: co-IP; immunoprecipitation of endogenous RIP1 from RIPA lysates of Flag-Pellino1-transfected, LPS-stimulated HK-2 cells with or without hypoxia; blots for Flag, TRIF and caspase-8.
The target in test [2] is caspase-8 (human (endogenous in HK-2)) (UniProt Q14790). Description: co-IP; immunoprecipitation of endogenous caspase-8 from RIPA lysates of HK-2 cells (LPS plus hypoxia; LPS with Pellino1 siRNA; with DAPK1 inhibitor or DAPK1 siRNA); blots for TRIF and RIP1.
Test [3] deals with T1, Flag-tagged wild-type Pellino1 (human) (UniProt Q96FA3).
T1 sequence: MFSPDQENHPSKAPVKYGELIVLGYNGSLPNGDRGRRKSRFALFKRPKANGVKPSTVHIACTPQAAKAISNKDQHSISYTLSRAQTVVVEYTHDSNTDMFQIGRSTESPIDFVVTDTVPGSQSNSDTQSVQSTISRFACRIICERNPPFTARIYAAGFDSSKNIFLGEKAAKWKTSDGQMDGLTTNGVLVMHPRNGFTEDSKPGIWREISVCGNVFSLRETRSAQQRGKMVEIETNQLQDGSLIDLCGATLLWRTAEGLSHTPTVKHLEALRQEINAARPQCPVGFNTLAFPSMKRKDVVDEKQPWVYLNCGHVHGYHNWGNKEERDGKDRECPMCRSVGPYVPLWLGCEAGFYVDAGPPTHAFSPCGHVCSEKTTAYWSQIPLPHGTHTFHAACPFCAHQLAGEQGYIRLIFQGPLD
The test is described as follows: co-IP; immunoprecipitation of Flag-Pellino1 with anti-Flag from RIPA lysates of transfected HK-2 cells stimulated with LPS with or without hypoxia (also with DAPK1 inhibitor or DAPK1 siRNA); blots for TRIF, RIP1, DAPK1.

Test [4] addresses myeloid differentiation primary response gene 88 (MyD88) (human (endogenous in HK-2)) (UniProt Q99836). Description: co-IP; immunoprecipitation of endogenous MyD88 from RIPA lysates of LPS-stimulated HK-2 cells with or without hypoxia (also Pellino1 knockout cells); blots for TLR4, IRAK1 and TRAF6.

With “TIR domain-containing adapter-inducing interferon β (TRIF) (from UniProt Q8IUC6 1-712)”, the binding entry in test [1], in test [2] and in test [3] was “binds” each time.

On to “interleukin-1 receptor-associated kinase 1 (IRAK1) (from UniProt P51617 1-712) (enzyme)”, for which the binding result in test [4] is given as “binds”.

As for “receptor-interacting protein 1 (RIP1) (from UniProt Q13546 1-671) (enzyme)”, the binding entry in test [3] is given as “binds”.

Turning to “toll-like receptor 4 (TLR4) (from UniProt O00206 24-839)”, in test [4], the binding result was “binds”.
